Measurements reported in US20050153943A1, “Methods of simultaneously treating mucositis and fungal infection” (priority 2002, published 2005).
At least one structure is not confirmed: it was looked up by name or label, or the drawing left a doubt.

Assays:
[1] = test system: Aspergillus fumigatus ATCC 1022; test: Fungal growth on SABHI agar containing CMT (Example 38); type: cell-based; conditions: 30° C., growth grade
Protocol: The following fungi were inoculated onto potato dextrose agar (PDA) from stock cultures and incubated aerobically at 30° C.: Aspergillus [NT] 1022, Penicillium sp. (laboratory isolate), Candida albicans, ATCC 14053, and Rhizopus sp. […] The conidia were suspended in 0.9% saline and the turbidity was adjusted to match a 0.5 MacFarland standard (equivalent to approximately 1.5×10^8 cells). Candida albicans was suspended in saline and adjusted to 0.5 MacFarland in a similar manner. These suspensions were diluted 1:100 in sterile 0.9% saline. SABHI Agar (Difco) pH 7.0 was prepared in 100 ml amounts and sterilized at 121° C. for 15 min. […] SABHI Agar plates of each CMT and SAHBI agar without CMT using dimethylsulphoxide (DMSO) as a control were inoculated with 10 μl of conidia suspension of Aspergillus fumigatus, Penicillium sp. and Rhizopus sp. and 10 μl suspension of Candida albicans prepared as described above. The plates were then incubated aerobically for 24 hour and for 48 hours at 30° C. The results are set forth in Table 1 (24 hr. incubation) and Table 2 (48 hr. incubation). [table]

Aspergillus f. = test: Direct comparison of CMT-3 and Amphotericin B, agar plates (Example 39); type: cell-based
Protocol: The plates were prepared as described above, using […], 0.50, 1.00 and 2.00 concentrations of each of the drugs tested. DMSO was used as a control

| SMILES | Growth at 25 μg/ml compared to control at 24 hrs incubation [1] | Growth grade at Conc. 1.00 μg/ml (Aspergillus f.) |
| --- | --- | --- |
| CN(C)CC(=O)Nc1ccc2c(c1O)C(=O)C1=C(O)C3(O)C(=O)C(C(N)=O)=C(O)CC3CC1C2 (stereo not shown) [COL 309, 9-dimethylaminoacetamido-6-demethyl-6-deoxy-4-dedimethylaminotetracycline] | ± | – |
| NC(=O)C1=C(O)C[C@@H]2C[C@@H]3Cc4cccc(O)c4C(=O)C3=C(O)[C@]2(O)C1=O [COL 3, 6-demethyl-6-deoxy-4-dedimethylaminotetracycline] | – | ±0 |
| NC(=O)C1=C(O)CC2CC3Cc4ccc([N+](=O)[O-])c(O)c4C(=O)C3=C(O)C2(O)C1=O (stereo not shown) [COL 303, 9-nitro-6-demethyl-6-deoxy-4-dedimethylaminotetracycline] | ± | – |
| CC1c2cccc(O)c2C(=O)C2=C(O)C3(O)C(=O)C(C(N)=O)=C(O)CC3C(O)C21 (stereo not shown) [COL 8, 4-dedimethylaminodoxycycline] | ± | – |
